# According to the supplement of paper PMC8728848:
# Some of the results follow.
# B1: SabA (Helicobacter pylori) (protein)
# chain: MGSSHHHHHHSSGLVPRGSHMENLYFQGEDNGFFVSAGYQIGEAVQMVKNTGELKNLNEKYEQLSQYLNQVASLKQSIQNANNIELVNSSLNYLKSFTNNNYNSTTQSPIFNAVQAVITSVLGFWSLYAGNYFTFFVGKKVGDSGQPASVQGNPPFKTIIENCSGIENCAMDQTTYDKMKKLAEDLQAAQTNSATKGNNLCALSGCAATDSTSNPPNSTVSNALNLAQQLMDLIANTKTAMMWKNIVISGVSNTSGAITSTNYPTQYAVFNNIKAMIPILQQAVTLSQSNHTLSASLQAQATGSQTNPKFAKDIYTFAQNQKQVISYAQDIFNLFNSIPAEQYKYLEKAYLKIPNAGSTPTNPYRQVVNLNQEVQTIKNNVSYYGNRVDAALSVARDVYNLKSNQAEIVTAYNDAKTLSEEISKLPHNQVNTKDIVTLPYDKNAPAAGQSNYQINPEQQSNLNQALAAMSNNPFKKVGMISSQNNNGA
# Columns and labels:
# Assay in all cases: glycan array binding signal (z-score within array); higher = stronger binding
# Conditions in all cases: glycan notation: IUPAC condensed, linker removed
# Gal(a1-6)Glc = biological target: Gal(a1-6)Glc
# Method in brief: (§1)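 Glycan array binding is given as a within-array Z-score, which can be read as non-binding when negative. The arrays, 3228 of them, came from the Consortium for Functional Glycomics database and were retained only where the protein sequence was available. Z-scores were averaged across arrays of the same protein sequence at different concentrations or buffers and across linkers.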
# Gal(b1-2)Gal = biological target: Gal(b1-2)Gal
# Method in brief: as §1
# Gal(b1-3)Gal = biological target: Gal(b1-3)Gal
# Method in brief: as §1
# Gal(b1-3)Gal(b1-4)GlcNAc = biological target: Gal(b1-3)Gal(b1-4)GlcNAc
# Method in brief: as §1
# Gal(b1-3)GalNAc = biological target: Gal(b1-3)GalNAc
# Method in brief: as §1
# [1] = biological target: Gal(b1-3)GalNAc(a1-3)[Fuc(a1-2)]Gal(b1-4)Glc
# Method in brief: as §1
# [2] = biological target: Gal(b1-3)GalNAc(a1-3)[Fuc(a1-2)]Gal(b1-4)GlcNAc
# Method in brief: as §1
# Gal(b1-3)GalNAc(b1-3)Gal = biological target: Gal(b1-3)GalNAc(b1-3)Gal
# Method in brief: as §1
# [3] = biological target: Gal(b1-3)GalNAc(b1-3)Gal(a1-4)Gal(b1-4)Glc
# Method in brief: as §1
# [4] = biological target: Gal(b1-3)GalNAc(b1-4)Gal(b1-4)Glc
# Method in brief: as §1
# [5] = biological target: Gal(b1-3)GalNAc(b1-4)[Neu5Ac(a2-3)]Gal(b1-4)Glc
# Method in brief: as §1
# Gal(b1-3)GlcNAc = biological target: Gal(b1-3)GlcNAc
# Method in brief: as §1
# [6] = biological target: Gal(b1-3)GlcNAc(a1-3)Gal(b1-4)GlcNAc
# Method in brief: as §1
# [7] = biological target: Gal(b1-3)GlcNAc(a1-6)Gal(b1-4)GlcNAc
# Method in brief: as §1
# Gal(b1-3)GlcNAc(b1-2)Man = biological target: Gal(b1-3)GlcNAc(b1-2)Man
# Method in brief: as §1
# [8] = biological target: Gal(b1-3)GlcNAc(b1-2)Man(a1-3)[Gal(b1-3)GlcNAc(b1-2)Man(a1-6)]Man(b1-4)GlcNAc(b1-4)GlcNAc
# Method in brief: as §1
# [9] = biological target: Gal(b1-3)GlcNAc(b1-2)Man(a1-3)[Gal(b1-3)GlcNAc(b1-2)Man(a1-6)]Man(b1-4)GlcNAc(b1-4)[Fuc(a1-6)]GlcNAc
# Method in brief: as §1
# [10] = biological target: Gal(b1-3)GlcNAc(b1-2)Man(a1-3)[GlcNAc(b1-4)][Gal(b1-3)GlcNAc(b1-2)Man(a1-6)]Man(b1-4)GlcNAc(b1-4)GlcNAc
# Method in brief: as §1
# [11] = biological target: Gal(b1-3)GlcNAc(b1-2)[Gal(b1-3)GlcNAc(b1-6)]Man(a1-6)[Gal(b1-3)GlcNAc(b1-2)Man(a1-3)]Man(b1-4)GlcNAc(b1-4)GlcNAc
# Method in brief: as §1
# [12] = biological target: Gal(b1-3)GlcNAc(b1-3)Gal(b1-3)GlcNAc
# Method in brief: as §1
# [13] = biological target: Gal(b1-3)GlcNAc(b1-3)Gal(b1-4)Glc
# Method in brief: as §1
# [14] = biological target: Gal(b1-3)GlcNAc(b1-3)Gal(b1-4)GlcNAc
# Method in brief: as §1
# [15] = biological target: Gal(b1-3)GlcNAc(b1-3)Gal(b1-4)GlcNAc(b1-2)Man(a1-3)[Gal(b1-3)GlcNAc(b1-3)Gal(b1-4)GlcNAc(b1-2)Man(a1-6)]Man(b1-4)GlcNAc(b1-4)GlcNAc
# Method in brief: as §1
# [16] = biological target: Gal(b1-3)GlcNAc(b1-3)Gal(b1-4)GlcNAc(b1-2)[Gal(b1-3)GlcNAc(b1-3)Gal(b1-4)GlcNAc(b1-6)]Man(a1-6)[Gal(b1-3)GlcNAc(b1-3)Gal(b1-4)GlcNAc(b1-2)Man(a1-3)]Man(b1-4)GlcNAc(b1-4)[Fuc(a1-6)]GlcNAc
# Method in brief: as §1
# [17] = biological target: Gal(b1-3)GlcNAc(b1-3)Gal(b1-4)GlcNAc(b1-3)Gal(b1-4)GlcNAc(b1-2)[Gal(b1-3)GlcNAc(b1-3)Gal(b1-4)GlcNAc(b1-3)Gal(b1-4)GlcNAc(b1-6)]Man(a1-6)[Gal(b1-3)GlcNAc(b1-3)Gal(b1-4)GlcNAc(b1-3)Gal(b1-4)GlcNAc(b1-2)Man(a1-3)]Man(b1-4)GlcNAc(b1-4)[Fuc(a1-6)]GlcNAc
# Method in brief: as §1
# [18] = biological target: Gal(b1-3)GlcNAc(b1-3)Gal(b1-4)GlcNAc(b1-6)[Gal(b1-3)GlcNAc(b1-3)]Gal(b1-4)Glc
# Method in brief: as §1
# [19] = biological target: Gal(b1-3)GlcNAc(b1-3)Gal(b1-4)[Fuc(a1-3)]GlcNAc
# Method in brief: as §1
# [20] = biological target: Gal(b1-3)GlcNAc(b1-3)Gal(b1-4)[Fuc(a1-3)]GlcNAc(b1-6)[Gal(b1-3)GlcNAc(b1-3)]Gal(b1-4)Glc
# Method in brief: as §1
# [21] = biological target: Gal(b1-3)GlcNAc(b1-3)GalNAc
# Method in brief: as §1
# [22] = biological target: Gal(b1-3)GlcNAc(b1-6)Gal(b1-4)GlcNAc
# Method in brief: as §1
# [23] = biological target: Gal(b1-3)GlcNAc(b1-6)GalNAc
# Method in brief: as §1
# [24] = biological target: Gal(b1-3)GlcNAc(b1-6)[Gal(b1-3)]GalNAc
# Method in brief: as §1
# Gal(b1-3)GlcNAc6S = biological target: Gal(b1-3)GlcNAc6S
# Method in brief: as §1
# [25] = biological target: Gal(b1-3)[Fuc(a1-4)]GlcNAc
# Method in brief: as §1
# [26] = biological target: Gal(b1-3)[Fuc(a1-4)]GlcNAc(b1-2)Man
# Method in brief: as §1
# [27] = biological target: Gal(b1-3)[Fuc(a1-4)]GlcNAc(b1-2)Man(a1-3)[Gal(b1-3)[Fuc(a1-4)]GlcNAc(b1-2)Man(a1-6)]Man(b1-4)GlcNAc(b1-4)[Fuc(a1-6)]GlcNAc
# Method in brief: as §1
# [28] = biological target: Gal(b1-3)[Fuc(a1-4)]GlcNAc(b1-3)Gal(b1-3)[Fuc(a1-4)]GlcNAc
# Method in brief: as §1
binder,measurement,setting,value
B1,glycan array binding signal (z-score),Gal(a1-6)Glc,-0.417
same,glycan array binding signal (z-score),Gal(b1-2)Gal,-0.072
same,glycan array binding signal (z-score),Gal(b1-3)Gal,-0.298
same,glycan array binding signal (z-score),Gal(b1-3)Gal(b1-4)GlcNAc,-0.637
same,glycan array binding signal (z-score),Gal(b1-3)GalNAc,-0.215
same,glycan array binding signal (z-score),[1],-0.144
same,glycan array binding signal (z-score),[2],-0.576
same,glycan array binding signal (z-score),Gal(b1-3)GalNAc(b1-3)Gal,-0.627
same,glycan array binding signal (z-score),[3],0.876
same,glycan array binding signal (z-score),[4],-0.316
same,glycan array binding signal (z-score),[5],-0.353
same,glycan array binding signal (z-score),Gal(b1-3)GlcNAc,-0.315
same,glycan array binding signal (z-score),[6],-0.729
same,glycan array binding signal (z-score),[7],-0.324
same,glycan array binding signal (z-score),Gal(b1-3)GlcNAc(b1-2)Man,0.435
same,glycan array binding signal (z-score),[8],-0.656
same,glycan array binding signal (z-score),[9],0.385
same,glycan array binding signal (z-score),[10],0.404
same,glycan array binding signal (z-score),[11],1.42
same,glycan array binding signal (z-score),[12],-0.786
same,glycan array binding signal (z-score),[13],-0.658
same,glycan array binding signal (z-score),[14],-0.288
same,glycan array binding signal (z-score),[15],-0.507
same,glycan array binding signal (z-score),[16],-0.488
same,glycan array binding signal (z-score),[17],-0.301
same,glycan array binding signal (z-score),[18],-0.24
same,glycan array binding signal (z-score),[19],-0.454
same,glycan array binding signal (z-score),[20],-0.566
same,glycan array binding signal (z-score),[21],-0.702
same,glycan array binding signal (z-score),[22],-0.252
same,glycan array binding signal (z-score),[23],-1.03
same,glycan array binding signal (z-score),[24],-0.369
same,glycan array binding signal (z-score),Gal(b1-3)GlcNAc6S,0.606
same,glycan array binding signal (z-score),[25],-0.241
same,glycan array binding signal (z-score),[26],0.555
same,glycan array binding signal (z-score),[27],0.33
same,glycan array binding signal (z-score),[28],-0.751

# Retrieved one by one from the list above:
binder,measurement,setting,value
B1,glycan array binding signal (z-score),[17],-0.301
same,glycan array binding signal (z-score),[9],0.385
same,glycan array binding signal (z-score),[18],-0.24
